The supplement of paper PMC3334620
Over roughly 33,000 sequences, “E-score (-0.5 to 0.5)” has its median near -8e-05; the highest 2% begin near 0.23. Some of the results follow.

Target: T1, Nrg2 (UniProt P38082)
T1 sequence: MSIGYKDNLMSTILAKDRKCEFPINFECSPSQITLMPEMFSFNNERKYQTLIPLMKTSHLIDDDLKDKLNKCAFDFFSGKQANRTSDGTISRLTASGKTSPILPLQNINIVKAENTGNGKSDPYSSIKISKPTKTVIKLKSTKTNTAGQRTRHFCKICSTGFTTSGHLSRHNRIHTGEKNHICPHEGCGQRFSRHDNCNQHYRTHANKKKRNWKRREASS
Test: PBM E-score (8-mer binding enrichment) (E-score (-0.5 to 0.5)); higher = stronger / more preferred TF binding
Settings: protein concentration: 100 nM; construct: GST-full length
Summary of the method: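 Each ungapped eight-base word and its reverse complement, pooled, received an E-score from the Universal PBM Analysis Suite. Underlying scans, normalised with masliner, recorded fluorescent anti-GST bound to GST-tagged yeast transcription factors. These were applied at about 100-200 nM to universal all-10-mer Agilent arrays double-stranded by primer extension.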

Sequence	PBM E-score
GTGCGATA	-0.0268
ATGACTGC	0.0247
GAGTGTGC	0.0556
TCCTCCAA	0.0214
CTGAACTC	-0.0772
GCGTGAAA	-0.0326
ACTCCAAT	-0.176
ATGACTTG	0.0143
ACTATGTA	0.00908
ACAACGCC	0.0328
TCAATAGA	0.0639
CGGCCGAG	0.0605
CCCCAAGC	0.0423
GAGAATGC	0.11
CCTAGGGA	0.0278
CACAATTC	0.212
GAGCGCCC	-0.136
TACATAAA	-0.0428
AGTGCAAG	0.156
AGCGAGTC	0.0625
ATGGCCTC	-0.0922
AACCGAGC	0.045
GTACGGTA	0.0837
GGCAGGAA	-0.0622
ATCCGAAA	0.0482

Individual results from the entries so far.
Under PBM E-score, AGCGAGTC shows 0.0625
Under PBM E-score, CCTAGGGA shows 0.0278
Under PBM E-score, CTGAACTC shows -0.0772
Under PBM E-score, ACTCCAAT shows -0.176
Under PBM E-score, TACATAAA shows -0.0428
Under PBM E-score, GAGCGCCC shows -0.136

Remaining list, next part

Sequence	PBM E-score
ACCAAGAC	0.00197
GAGGCGGC	-0.0334
ACTGGTGC	0.0109
GTAGGGAC	0.0213
TAGCCTAA	-0.226
CATATGAG	0.193
AGCTATAT	0.0935
CGCTGAAA	-0.113
CCCTTCCC	0.0699
GGGCGAGA	-0.016
TCAATTCA	0.102
GCCTCCTA	-0.342
CCGCGAGG	0.152
CTCTTCGA	0.0214
AGCGGACG	0.146
AGTCTCCC	-0.14
AGAGCCAA	0.132
TGGGACCA	-0.0324
AAAAAACC	-0.0346
GCTGGACA	-0.17
CTCCATAA	-0.181
CTAAGACC	0.0966
AAGTGCCG	-0.124
GCGTGCAA	0.0391
CAGGAAGC	0.135

Sequence	PBM E-score
AGATGTCC	-0.106
AAGCTGGG	-0.158
AGTGCCAC	-0.137
AAAACCGG	0.0861
GAGTAAAA	0.115
ACTAAATG	-0.0439
GACCTTAC	-0.0117
CGTGAATA	0.17
CCCTATAC	0.0369
CCCGGTGC	-0.242
CGGAAGCA	0.161
ATCGGACA	-0.0296
ACCCCAAG	0.0597
ATTGGCGG	-0.171
TCCGCAAA	-0.0547
GCGGCTGA	-0.0643
CGGATTAG	-0.0194
AAGATCTA	-0.0798
AACGTCCA	-0.131
AAAAAATG	0.0861
GTTATAGA	-0.0589
GGGAAGGA	-0.0581
CGGCGGTA	0.138
CCAACGGC	-0.271
ATCTAACA	0.0258

Sequence	PBM E-score
ATGGAGCG	0.0304
AGTGGTCG	0.00821
CCTATACG	-0.11
TAGTTCAA	0.136
GGAGTCCC	-0.166
AACTCACG	0.0331
TAGTGAGA	-0.0197
CTGTGGCA	0.064
TAGATCCA	0.12
GGGGCCGA	-0.158
ACTATCAC	-0.016
AAGGTACT	0.0177
TCGCCACA	0.0198
CGTGATTC	-0.119
ACGGGGGC	-0.378
CCTTTGAA	-0.032
CATAGTAA	0.144
ACTCCCCT	0.0305
CGCCACAA	0.0944
GATCCTAC	0.194
CAAAGTGC	-0.052
AGGTGTAA	0.0854
CGCTGGTC	-0.159
ATCTCTGG	-0.118
CCAGACAG	-0.00394

Sequence	PBM E-score
TGGTGACA	-0.0667
ATCGCGAT	0.271
CCTGTTAG	-0.0527
ACTCGTAA	0.146
ATCTGGCG	-0.0555
CCAACAGC	0.0541
GAGGCGGA	-0.231
AAGTACCC	0.0733
CATATATC	0.0914
ATGCTGGA	0.02
AGACAAAA	-0.00285
GCTCCTCC	-0.27
CACCGCAA	0.233
AAGTGACA	0.145
GCAGCGGA	0.0428
GCACTCGC	-0.0381
ACTTAGCA	-0.104
CCACCTCA	0.117
AATCTCAA	0.124
AACACGAC	0.0492
GGTGTTAC	-0.204
GAGCTTCC	0.108
CATCCATA	-0.0199
GGGTGTGA	-0.181
CCTCCGCA	-0.0432

Sequence	PBM E-score
GCATTGAC	-0.171
ACAATCGG	0.0611
CACAGGAA	0.0234
TACCCATA	-0.12
GCTAGCAC	-0.0851
AGATAGCC	-0.156
CCCGACGC	-0.106
ATCTTCTG	-0.0488
CGCAGACC	-0.233
CGGCCCTC	-0.257
GGGATCAC	-0.0306
AGTAACGG	0.0195
AGGAGTAT	-0.0395
CCGATAGC	-0.163
GACCTGGC	0.073
GGGATAGA	-0.135
GATGTGCC	-0.154
AACATGGA	0.0241
AAGAAGAC	-0.0746
GGACCGAC	0.0348
CACAGTGG	-0.0358
CCCGATCA	-0.189
AACCCACA	0.0347
CAGAATTC	-0.0147
ATATTCAC	0.137

Sequence	PBM E-score
GGCGTACA	-0.244
ACGACTTC	-0.161
CCACGTCC	-0.123
CACTTATC	0.0997
CAATTTAA	0.132
ACTGGTAG	-0.0759
CTGGGCAA	0.0385
CAAGGGGC	0.0751
ACACAATG	0.0758
TAATGACA	0.123
ACATCCGA	0.0466
AAGACGCG	0.0059
CGGTTCTC	-0.197
CCGCTACG	-0.191
ACCTGTTG	0.024
GAGGCACC	-0.264
CGATCGCG	0.149
CGTGTTGC	0.0528
AGTAACTG	-0.0237
AGCAAACT	0.0682
ACGGACAA	0.233
AAAATAGC	-0.146
ACTTTTTC	-0.0528
CAGCCTCA	-0.0113
AAAACTGG	0.124

Sequence	PBM E-score
ACCTCGCC	-0.101
CGAAGCAC	-0.00391
TATACATA	0.0439
ACAGCACT	0.0609
CAATGTTA	-0.111
CGGGACAC	0.0733
GCTTTCTA	0.0576
AACTAATT	0.19
CGTCGTTA	-0.136
CACACAAG	0.0622
GGCGACCA	-0.146
GTAGAACA	-0.195
GGCTGTTA	-0.00387
AATAGCCT	-0.0764
ACAGCATG	-0.115
AGGATATA	0.088
GCTTTAGA	-0.196
CCAGTGTA	0.032
CACACATC	-0.066
TTCAAAAA	0.0879
TAAGCTTA	0.112
CAAGCAAA	0.0419
CCATCTGA	0.00443
TGGAGACA	-0.0105
GTCGGACA	-0.0478

Given field by field: part of the list above
CGTCGTTA
  PBM E-score: -0.136
CACACAAG
  PBM E-score: 0.0622
GGCGACCA
  PBM E-score: -0.146
GTAGAACA
  PBM E-score: -0.195

Following part.

Sequence	PBM E-score
TCAGTTAA	-0.059
ACTGCATG	0.0846
AACGCCGC	-0.067
CCCTATAG	0.0795
GTAGTAAC	-0.0426
GATCCAAC	-0.0228
CGTTTACC	0.0492
CTTACAAC	0.0206
CTGAGCAG	-0.0182
GCGACGCC	-0.043
CGGGTGAC	-0.0611
AACTTCCT	0.105
CAGTAGAA	0.0679
CTATTCTA	0.133
AGAATATG	0.0751
GCCGTCAC	0.00646
CACAAGGA	-0.0663
GTTCGAGA	0.0527
ATAAAGCC	-0.0662
AATTGCGG	-0.0123
ACTGGGGG	-0.421
CGATAGGC	-0.0639
CTTCATCA	0.174
GCTGACGA	0.0808
CCCGGAGA	-0.138

Part of the list above, bar-delimited:
Sequence | PBM E-score
GTAGTAAC | -0.0426
CCCGGAGA | -0.138

Later entries

Sequence	PBM E-score
CGTGAAAA	0.0397
GTGCTGCA	-0.0396
GGAGGAAA	-0.0999
GCGTGCGA	-0.103
ATCAGGGC	0.127
GATAACAC	0.0127
CAAGAATG	-0.0199
ACATACAC	0.0363
AGGTATCC	0.0496
ATGGTGAC	-0.134
AGGGACTA	0.242
AATTCCCG	-0.0292
AATGATGG	0.157
CAGAACTC	0.0408
TCGATTCA	0.152
CCTCATCA	0.063
ATCTCTCG	0.0246
GTTACAGA	-0.14
ATACGAAT	0.00342
CCCACGCC	-0.228
ACCGTTAC	-0.118
CACTCTAA	0.0593
GACGCCTC	-0.0713
GGGAATTA	0.0505
CATTATAG	-0.0331

Sequence	PBM E-score
GCAGTTAC	0.063
CGAATGAC	0.175
GTAAAGAA	0.045
CATTTAAG	0.0535
AAGAAGGC	-0.197
CGTAGCTC	0.0178
CACCCATG	0.0717
ATTCGCAA	0.174
AAAGGCAA	0.046
CACTACTA	0.0799
GGGGTCTA	0.203
GTATCCCA	-0.0421
AAGTTTAT	0.173
AGGTGCAC	0.162
GCATAGCA	-0.0131
GACCTTGC	-0.128
AGATCATA	0.199
CCGCAAGA	0.0368
ACAGAAAA	0.133
AAACTCCT	-0.208
AATATAGA	0.0664
AGTGCGTG	0.0141
GCATCGCC	-0.143
ATGAGACA	0.0867
GACCGAAC	-0.0344

Sequence	PBM E-score
GGCAAAGA	0.0887
AATGGTTC	-0.0121
GAGTGGCC	-0.014
ACACGTCG	-0.16
CAAAGCTG	0.136
AACCGAGT	-0.207
AAGGTTAT	-0.072
AACTGTTA	0.195
CCTGCGTA	-0.135
AGTAGTAC	0.156
CAATAAGC	-0.032
GGCATACC	-0.0498
ATATGAGC	0.141
TCATGGCA	-0.0202
CGTCGAGC	-0.0344
TAACCCAA	-0.00379
AGTAAGGA	-0.00565
CCCAATTC	0.176
CAATCGCG	0.108
ACGCGACC	-0.0575
GGCAGGGA	0.0907
CATTTGGC	-0.0102
ACGCCTGA	0.0835
GTGACTTA	0.00059
AAGGTAAG	-0.0254

Sequence	PBM E-score
TATGCGCA	0.214
ATGACTTC	0.0987
GACGGCAA	0.014
ACTTTCCT	-0.00666
CGCAAGCC	0.114
CCGAATTC	0.109
GACATGAC	-0.0496
GGTAATTA	0.113
CGACGGCA	-0.0275
ATCACGGG	-0.0119
AAGCTCTA	-0.0141
CGCTGGAA	-0.158
GGAAGTAA	0.00119
CATTCCCC	0.157
ACCATGTC	-0.0503
CGGTTTTA	-0.0482
CCTAAGCA	-0.122
CTGCTATA	0.157
GCGTGACA	0.126
GAAATGCA	0.055
GCGCTGCC	-0.315
CAATCGAG	-0.0253
CAAAAGGG	0.159
TCTGCTCA	-0.112
GAAAAGAC	-0.0152

Sequence	PBM E-score
CGCCTTAC	-0.176
GACAAATC	0.0497
CTAAGACA	0.0315
AGGCCCTG	0.136
CCGGTTTC	0.00257
GAAAAAAA	0.133
CGCGCTGA	0.0409
AGCAGTCC	-0.0735
GACATTCA	0.0321
TTACTGAA	0.0899
GTACACGA	0.0505
CCGTATGA	0.0752
ATAGATAC	0.0874
GTCATAAC	0.00055
AGGCCAGA	0.0719
CCGGTTTA	-0.083
CCACCGGG	-0.172
CATTTAAA	0.208
GAATCATA	0.0301
